Results taken from PubChem BioAssay AID651706 (NMMLSC, 2012).
This is one part of the list. Some results for these compounds are left out of this collection, so the calls shown say nothing about other tests.

Assay: differentiation of ER-HoxA9 arrested myeloid cells – cell-based, GFP/Mac1 flow cytometry, cherry pick 01, confirmation (AID 651706);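 also: share of live cells carrying both lysozyme GFP and MAC1 staining after four days; test concentration not given here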
Conditions: ER-HoxA9 myeloid progenitors, measured here: percent double positive cells, stronger effect = higher value
With `CCN(CC)CC(C)C(C)OC(=O)C(O)(c1ccccc1)c1ccccc1` (stereo unspecified) the double positive cells was 1.7%.
